From the supplement of paper PMC4604168 (melanoma cell lines)
The other results are listed elsewhere or left out. Repeats are few or missing, and single values can be far off.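 Cells were imaged in 1,536-well plates, and nuclei stained with an antibody against cleaved PARP were counted against all DNA-stained nuclei to give the apoptosis fraction. Screening doses were chosen to leave most cells alive, and resting and induced cleaved-PARP levels differ strongly between cell lines.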

Assays:
Experiment in all cases: cleaved PARP positive nuclei fraction relative to DMSO control; melanoma cells; higher = more apoptosis
Settings in all cases: library dose: low library concentration; 72 h
MZ2-MEL = tested on: MZ2-MEL
MeWo = tested on: MeWo
RPMI7951 = tested on: RPMI7951
RVH-421 = tested on: RVH-421
SkMel28 = tested on: SkMel28
SkMel2 = tested on: SkMel2
SkMel30 = tested on: SkMel30
SkMel5 = tested on: SkMel5
UACC257 = tested on: UACC257
UACC62 = tested on: UACC62

SMILES | cleaved PARP positive nuclei fraction (MZ2-MEL) [%] | cleaved PARP positive nuclei fraction (MeWo) [%] | cleaved PARP positive nuclei fraction (RPMI7951) [%] | cleaved PARP positive nuclei fraction (RVH-421) [%] | cleaved PARP positive nuclei fraction (SkMel28) [%] | cleaved PARP positive nuclei fraction (SkMel2) [%] | cleaved PARP positive nuclei fraction (SkMel30) [%] | cleaved PARP positive nuclei fraction (SkMel5) [%] | cleaved PARP positive nuclei fraction (UACC257) [%] | cleaved PARP positive nuclei fraction (UACC62) [%]
CCCCCCCCc1ccc(CCC(N)(CO)CO)cc1 [fingolimod] + Cc1cc(N2CCOCC2)cc2[nH]c(-c3c(NC[C@@H](O)c4cccc(Cl)c4)cc[nH]c3=O)nc12 [BMS536924] (first compound 2 µM, partner dose 0.2 µM) | 72.6 | 74.3 | 92.4 | 81.6 | 135 | 132 | 143 | 321 | 174 | 70.1
NC1(c2ccc(-c3nc4ccn5c(=O)[nH]nc5c4cc3-c3ccccc3)cc2)CCC1 + COc1cc(N2CCC(N3CCN(C)CC3)CC2)ccc1Nc1ncc(Cl)c(Nc2ccccc2S(=O)(=O)C(C)C)n1 [NVP-TAE684] (first compound 0.4 µM, partner dose 0.08 µM) | 93.3 | 43.9 | 28.4 | 59.2 | 246 | 64.8 | 126 | 70.3 | 317 | 731
CCCCCCCCc1ccc(CCC(N)(CO)CO)cc1 [fingolimod] + CO[C@@H]1[C@H](N(C)C(=O)c2ccccc2)C[C@H]2O[C@]1(C)n1c3ccccc3c3c4c(c5c6ccccc6n2c5c31)C(=O)NC4 [Midostaurin] (first compound 2 µM, partner dose 0.08 µM) | 153 | 62 | 59.7 | 97.8 | 28.2 | 132 | 144 | 81.1 | 163 | 154
CS(=O)(=O)c1ccc(C(=O)Nc2ccc(Cl)c(-c3ccccn3)c2)c(Cl)c1 [vismodegib] + COc1cc2c(Oc3ccc4[nH]c(C)cc4c3F)ncnc2cc1OCCCN1CCCC1 [cediranib] (first compound 1 µM, partner dose 0.4 µM) | 38 | 93 | 52.2 | 54.9 | 40 | 122 | 290 | 137 | 79.8 | 103
Cn1cnc2c(F)c(Nc3ccc(Br)cc3Cl)c(C(=O)NOCCO)cc21 [selumetinib] + NC(=O)Nc1cc(-c2cccc(F)c2)sc1C(=O)N[C@H]1CCCNC1 [AZD7762] (first compound 0.015 µM, partner dose 0.02 µM) | 421 | 88.1 | 160 | 47.6 | 86.5 | 166 | 82.5 | 114 | 38.6 | 135
Cn1sc(=O)n(Cc2ccccc2)c1=O + CCCCCCCCCCCC1=C(O)C(=O)C=C(O)C1=O [Embelin] (first compound 0.4 µM, partner dose 1.2 µM) | 91.4 | 70.3 | 78 | 126 | 213 | 90.5 | 77.3 | 147 | 143 | 202
Cn1cnc2c(F)c(Nc3ccc(Br)cc3Cl)c(C(=O)NOCCO)cc21 [selumetinib] + O=C1NC(=O)/C(=C/c2ccc(-c3ccc(F)cc3O)o2)S1 [AS252424] (first compound 0.015 µM, partner dose 1 µM) | 228 | 175 | 55 | 186 | 134 | 141 | 36.2 | 62.8 | 195 | 193
Cn1cnc2c(F)c(Nc3ccc(Br)cc3Cl)c(C(=O)NOCCO)cc21 [selumetinib] + O=c1cc(-c2cccc3c2Sc2ccccc2S3)oc(N2CCOCC2)c1 [KU55933] (first compound 0.015 µM, partner dose 1 µM) | 174 | 148 | 35.5 | 154 | 87.6 | 227 | 97.9 | 54.5 | 130 | 172
COc1ccc(C2=N[C@@H](c3ccc(Cl)cc3)[C@@H](c3ccc(Cl)cc3)N2C(=O)N2CCNC(=O)C2)c(OC(C)C)c1 [Nutlin-3] + O=C1NC(=O)/C(=C/c2ccc(-c3ccc(F)cc3O)o2)S1 [AS252424] (first compound 0.1 µM, partner dose 1 µM) | 31.3 | 157 | 178 | 135 | 193 | 266 | 42.8 | 157 | 116 | 120
CS(=O)(=O)c1ccc(C(=O)Nc2ccc(Cl)c(-c3ccccn3)c2)c(Cl)c1 [vismodegib] + CC(C)CCN1c2nc(Nc3cc(F)c(O)c(F)c3)ncc2N(C)C(=O)C1C [BID1870] (first compound 1 µM, partner dose 0.2 µM) | 160 | 86.4 | 92.9 | 96.5 | 77.8 | 71.7 | 175 | 71.5 | 105 | 92.5
CN(c1ncccc1CNc1nc(Nc2ccc3c(c2)CC(=O)N3)ncc1C(F)(F)F)S(C)(=O)=O + OCCn1cc(-c2cnc3nnn(Cc4ccc5ncccc5c4)c3n2)cn1 [PF04217903] (first compound 0.08 µM, partner dose 1 µM) | 196 | 106 | 209 | 37 | 121 | 100 | 74.6 | 106 | 79.1 | 237
CS(=O)(=O)c1ccc(C(=O)Nc2ccc(Cl)c(-c3ccccn3)c2)c(Cl)c1 [vismodegib] + O=S(=O)(c1ccccc1)N(CC(F)(F)F)c1ccc(C(O)(C(F)(F)F)C(F)(F)F)cc1 [T0901317] (first compound 1 µM, partner dose 1.4 µM) | 88.1 | 65.8 | 20.5 | 106 | 196 | 70.7 | 16.7 | 79.1 | 59.1 | 73.1
C[C@]1(O)C[C@@H](c2nc(-c3ccc4ccc(-c5ccccc5)nc4c3)c3c(N)nccn32)C1 + COC(=O)c1sccc1S(=O)(=O)Nc1ccc(Nc2ccccc2)cc1OC [GSK0660] (first compound 0.4 µM, partner dose 1 µM) | 91.8 | 66.9 | 103 | 181 | 22.7 | 23.4 | 47.5 | 87.7 | 56.5 | 77.7
COc1ccc(C2=N[C@@H](c3ccc(Cl)cc3)[C@@H](c3ccc(Cl)cc3)N2C(=O)N2CCNC(=O)C2)c(OC(C)C)c1 [Nutlin-3] + CO[C@@H]1[C@H](N(C)C(=O)c2ccccc2)C[C@H]2O[C@]1(C)n1c3ccccc3c3c4c(c5c6ccccc6n2c5c31)C(=O)NC4 [Midostaurin] (first compound 0.1 µM, partner dose 0.08 µM) | 167 | 110 | 67.2 | 76 | 55.1 | 90 | 62 | 99.4 | 28.1 | 98.2
NC1(c2ccc(-c3nc4ccn5c(=O)[nH]nc5c4cc3-c3ccccc3)cc2)CCC1 + O=C1NC(=O)/C(=C/c2ccc(-c3ccc(F)cc3O)o2)S1 [AS252424] (first compound 0.4 µM, partner dose 1 µM) | 136 | 72.9 | 53.9 | 181 | 250 | 22.1 | 68.6 | 67.8 | 484 | 274
CN(c1ncccc1CNc1nc(Nc2ccc3c(c2)CC(=O)N3)ncc1C(F)(F)F)S(C)(=O)=O + COc1cc(Nc2ncc(F)c(Nc3ccc4c(n3)NC(=O)C(C)(C)O4)n2)cc(OC)c1OC [Tamatinib] (first compound 0.08 µM, partner dose 0.4 µM) | 239 | 54.2 | 296 | 132 | 73.4 | 84.7 | 77.1 | 72.1 | 140 | 140
COc1ccc(C2=N[C@@H](c3ccc(Cl)cc3)[C@@H](c3ccc(Cl)cc3)N2C(=O)N2CCNC(=O)C2)c(OC(C)C)c1 [Nutlin-3] + COc1cc(Nc2ncc(F)c(Nc3ccc4c(n3)NC(=O)C(C)(C)O4)n2)cc(OC)c1OC [Tamatinib] (first compound 0.1 µM, partner dose 0.4 µM) | 107 | 105 | 134 | 85.9 | 120 | 140 | 94.6 | 132 | 132 | 265
CCCCCCCCc1ccc(CCC(N)(CO)CO)cc1 [fingolimod] + Oc1cc(-c2nc(-c3ccccc3)[nH]c2-c2ccncc2)ccc1Cl [L779450] (first compound 2 µM, partner dose 0.2 µM) | 239 | 115 | 176 | 36.8 | 239 | 49 | 181 | 155 | 91.5 | 234
NC1(c2ccc(-c3nc4ccn5c(=O)[nH]nc5c4cc3-c3ccccc3)cc2)CCC1 + O=C(Nc1ccccc1)c1cc([N+](=O)[O-])ccc1Cl [GW9662] (first compound 0.4 µM, partner dose 2 µM) | 154 | 87.9 | 80.3 | 234 | 35.9 | 124 | 70.2 | 91.6 | 19 | 1370
COc1ccc(C2=N[C@@H](c3ccc(Cl)cc3)[C@@H](c3ccc(Cl)cc3)N2C(=O)N2CCNC(=O)C2)c(OC(C)C)c1 [Nutlin-3] + NCC(=O)Nc1ccc(-n2nc(C(F)(F)F)cc2-c2ccc3c(ccc4ccccc43)c2)cc1 [OSU03012] (first compound 0.1 µM, partner dose 1 µM) | 106 | 173 | 152 | 56.4 | 167 | 195 | 292 | 193 | 88.2 | 92.5

Shown as tab-separated lines: entries from further up.
SMILES	cleaved PARP positive nuclei fraction (MZ2-MEL) [%]	cleaved PARP positive nuclei fraction (MeWo) [%]	cleaved PARP positive nuclei fraction (RPMI7951) [%]	cleaved PARP positive nuclei fraction (RVH-421) [%]	cleaved PARP positive nuclei fraction (SkMel28) [%]	cleaved PARP positive nuclei fraction (SkMel2) [%]	cleaved PARP positive nuclei fraction (SkMel30) [%]	cleaved PARP positive nuclei fraction (SkMel5) [%]	cleaved PARP positive nuclei fraction (UACC257) [%]	cleaved PARP positive nuclei fraction (UACC62) [%]
Cn1cnc2c(F)c(Nc3ccc(Br)cc3Cl)c(C(=O)NOCCO)cc21 [selumetinib] + O=c1cc(-c2cccc3c2Sc2ccccc2S3)oc(N2CCOCC2)c1 [KU55933] (first compound 0.015 µM, partner dose 1 µM)	174	148	35.5	154	87.6	227	97.9	54.5	130	172
COc1ccc(C2=N[C@@H](c3ccc(Cl)cc3)[C@@H](c3ccc(Cl)cc3)N2C(=O)N2CCNC(=O)C2)c(OC(C)C)c1 [Nutlin-3] + NCC(=O)Nc1ccc(-n2nc(C(F)(F)F)cc2-c2ccc3c(ccc4ccccc43)c2)cc1 [OSU03012] (first compound 0.1 µM, partner dose 1 µM)	106	173	152	56.4	167	195	292	193	88.2	92.5
